PubChem BioAssay AID493246 – Drosophila RNAi Screening Center – 2011
Screen: 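Genome-wide search for dsRNAs that reduce cell number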 (primary screen). Cell system: Drosophila Kc and S2R+ cells. Reagents: long dsRNA against Drosophila genes. Read-out: 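Cell number per well after knock-down, printed as raw plate values; calls were based on per-plate z-scores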. Reading the numbers: Kc cell number and S2R+ cell number: higher = more cells remaining. Hit rule: 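Counted as a hit if cell number falls by a z-score of at least 3 within its plate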.
The screen tested about 21,000 reagents; this is an unselected part of those that have a named target and a result. Of all reagents, 429 (2%) got an active call. 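Values are raw and not normalised between plates; calls rest on per-plate z-scores that were not deposited.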 A plus sign joins genes that one reagent is predicted to hit. Reagent sequences are not shown. Not stated in the record: the amount of reagent, the time to read-out.

The opening 5 entries as a preview:
| predicted target | amplicon | Kc cell number, rep 1 | Kc cell number, rep 2 | S2R+ cell number, rep 1 | S2R+ cell number, rep 2 | Outcome |
| --- | --- | --- | --- | --- | --- | --- |
| KLHL18 (Kelch like family member 18) | DRSC15496 | 1.43e6 | 1.47e6 | 1.22e6 | 1.27e6 | inactive |
| E(spl)m5-HLH (Enhancer of split m5, helix-loop-helix) | DRSC16695 | 1.46e6 | 1.46e6 | 1.05e6 | 1.08e6 | inactive |
| CG15027 | DRSC19608 | 1.52e6 | 1.55e6 | 1.14e6 | 1.33e6 | inactive |
| Tbcd (Tubulin-binding cofactor D) | DRSC00273 | 1.33e6 | 1.35e6 | 8.00e5 | 7.97e5 | inactive |
| mRpL11 (mitochondrial ribosomal protein L11) | DRSC15482 | 1.26e6 | 1.26e6 | 9.31e5 | 1.08e6 | inactive |

Results, repeating the preview:
| predicted target | amplicon | Kc cell number, rep 1 | Kc cell number, rep 2 | S2R+ cell number, rep 1 | S2R+ cell number, rep 2 | Outcome |
| --- | --- | --- | --- | --- | --- | --- |
| KLHL18 (Kelch like family member 18) | DRSC15496 | 1.43e6 | 1.47e6 | 1.22e6 | 1.27e6 | inactive |
| E(spl)m5-HLH (Enhancer of split m5, helix-loop-helix) | DRSC16695 | 1.46e6 | 1.46e6 | 1.05e6 | 1.08e6 | inactive |
| CG15027 | DRSC19608 | 1.52e6 | 1.55e6 | 1.14e6 | 1.33e6 | inactive |
| Tbcd (Tubulin-binding cofactor D) | DRSC00273 | 1.33e6 | 1.35e6 | 8.00e5 | 7.97e5 | inactive |
| mRpL11 (mitochondrial ribosomal protein L11) | DRSC15482 | 1.26e6 | 1.26e6 | 9.31e5 | 1.08e6 | inactive |
| CG1317 | DRSC08305 | 1.44e6 | 1.50e6 | 1.23e6 | 1.28e6 | inactive |
| Hexim (Hexamethylene bisacetamide inducible) | DRSC15490 | 1.34e6 | 1.41e6 | 1.10e6 | 1.15e6 | inactive |
| spz (spatzle) | DRSC17065 | 5.23e5 | – | 8.38e5 | – | inactive |
| CG13896 | DRSC08366 | 1.21e6 | 1.47e6 | 1.12e6 | 1.50e6 | inactive |
| CG30323 | DRSC07656 | 1.47e6 | 1.55e6 | 1.20e6 | 1.31e6 | inactive |
| CG4069 | DRSC10396 | 1.35e6 | 1.53e6 | 1.16e6 | 1.10e6 | inactive |
| SMC2 (Structural maintenance of chromosomes 2) | DRSC07544 | 1.47e6 | 1.50e6 | 1.18e6 | 1.26e6 | inactive |
| robo3 (roundabout 3) | DRSC00374 | 1.47e6 | 1.50e6 | 1.06e6 | 1.24e6 | inactive |
| robo3 (roundabout 3) | DRSC00375 | 1.52e6 | 1.67e6 | 9.82e5 | 1.13e6 | inactive |
| robo3 (roundabout 3) | DRSC00684 | 1.50e6 | 1.54e6 | 1.06e6 | 1.22e6 | inactive |
| CG17329 | DRSC01926 | 1.61e6 | 1.65e6 | 1.32e6 | 1.56e6 | inactive |
| CG40378 (retired record) | DRSC20958 | 1.53e6 | 1.78e6 | 1.18e6 | 1.23e6 | inactive |
| peo (pendolino) | DRSC05995 | 1.34e6 | 1.39e6 | 1.05e6 | 1.17e6 | inactive |
| CG34326 (retired record) | DRSC19165 | 1.38e6 | 1.67e6 | 1.09e6 | 1.24e6 | inactive |
| hpRNA:CR18854 (hairpin RNA:CR18854) | DRSC02702 | 1.68e6 | 1.75e6 | 1.34e6 | 1.51e6 | inactive |
| Nup133 (Nucleoporin 133kD) | DRSC16150 | 1.52e6 | 1.65e6 | 1.10e6 | 1.23e6 | inactive |
| B-H2 (BarH2) | DRSC19335 | 6.97e5 | 8.20e5 | 5.40e5 | 6.05e5 | active |
| CG7745 | DRSC07037 | 9.97e5 | 1.12e6 | 3.80e5 | 4.62e5 | active |
| barr (barren) | DRSC03488 | 1.33e6 | 1.44e6 | 1.17e6 | 2.71e5 | inactive |
| Hdc (Histidine decarboxylase) | DRSC07439 | 1.34e6 | 1.36e6 | 1.16e6 | 1.22e6 | inactive |
| CG31463 | DRSC14346 | 1.78e6 | 2.01e6 | 1.36e6 | 1.46e6 | inactive |
| RPA1 (Replication protein A1) | DRSC16830 | 1.41e6 | 1.48e6 | 9.86e5 | 1.11e6 | inactive |
| CG32027 (retired record) | DRSC09571 | 1.61e6 | 1.73e6 | 1.24e6 | 1.42e6 | inactive |
| alpha-Est2 (alpha-Esterase-2) | DRSC12614 | 1.49e6 | 1.62e6 | 1.33e6 | 1.43e6 | inactive |
| CG32591 | DRSC19063 | 1.34e6 | 1.63e6 | 1.09e6 | 1.23e6 | inactive |
| CG8545 | DRSC07210 | 1.45e6 | 1.56e6 | 9.48e5 | 1.08e6 | inactive |
| CG31974 | DRSC00522 | 1.51e6 | 1.57e6 | 1.08e6 | 1.28e6 | inactive |
| Nedd8 (Nedd8 ubiquitin like modifier) | DRSC02092 | 1.51e6 | 1.59e6 | 8.26e5 | 2.41e5 | inactive |
| ara (araucan) | DRSC11322 | 1.38e6 | 1.36e6 | 7.72e5 | 8.48e5 | active |
| CG14907 + Mettl4 | DRSC15026 | 1.37e6 | 1.35e6 | 1.08e6 | 1.18e6 | inactive |
| CG14907 + Mettl4 | DRSC15027 | 1.37e6 | 1.43e6 | 1.13e6 | 1.21e6 | inactive |
| CG42362 + CG42363 | DRSC04265 | 1.23e6 | 1.16e6 | 9.93e5 | 8.90e5 | inactive |
| CG17999 | DRSC04300 | 1.34e6 | 1.43e6 | 1.15e6 | 1.17e6 | inactive |
| CG32712 | DRSC17820 | 5.28e5 | – | 8.94e5 | – | inactive |
| msps (mini spindles) | DRSC17004 | 1.56e6 | 1.62e6 | 1.15e6 | 1.20e6 | inactive |
| CG5909 | DRSC15914 | 1.44e6 | 1.47e6 | 1.01e6 | 1.09e6 | inactive |
| Shc (SHC-adaptor protein) | DRSC11284 | 1.48e6 | 1.46e6 | 1.26e6 | 1.40e6 | inactive |
| CG31460 | DRSC14370 | 1.45e6 | 1.53e6 | 1.31e6 | 1.36e6 | inactive |
| Br140 (Bromodomain-containing protein, 140kD) | DRSC06755 | 1.22e6 | 1.30e6 | 8.04e5 | 8.82e5 | inactive |
| CG14304 | DRSC14783 | 1.30e6 | 1.31e6 | 9.41e5 | 1.01e6 | inactive |
| Vha16-5 (Vacuolar H[+] ATPase 16kD subunit 5) | DRSC02986 | 1.43e6 | 1.78e6 | 1.44e6 | 1.57e6 | inactive |
| Nop17l (Nop17 like) | DRSC06556 | 1.32e6 | 1.42e6 | 1.10e6 | 1.17e6 | inactive |
| CG8728 | DRSC07251 | 1.53e6 | 1.57e6 | 9.96e5 | 1.04e6 | inactive |
| PIG-F (Phosphatidylinositol glycan anchor biosynthesis class F) | DRSC11069 | 1.35e6 | 1.33e6 | 1.32e6 | 1.44e6 | inactive |
| hrm (hermes) | DRSC04853 | 1.71e6 | 1.74e6 | 1.22e6 | 1.30e6 | inactive |
| Dysb (Dysbindin) | DRSC10730 | 1.71e6 | 1.83e6 | 1.40e6 | 1.44e6 | inactive |
| cyr (cypher) | DRSC18017 | 1.53e6 | 1.46e6 | 1.05e6 | 1.12e6 | inactive |
| cyr (cypher) | DRSC18018 | 1.53e6 | 1.46e6 | 1.03e6 | 1.12e6 | inactive |
| cyr (cypher) | DRSC18021 | 1.54e6 | 1.52e6 | 9.93e5 | 1.08e6 | inactive |
| Tsp42Ea (Tetraspanin 42Ea) | DRSC04982 | 1.61e6 | 1.61e6 | 1.18e6 | 1.37e6 | inactive |
| Tsp42Ea (Tetraspanin 42Ea) | DRSC06792 | 1.51e6 | 1.64e6 | 1.29e6 | 1.47e6 | inactive |
| Ubr1 (Ubr1 ubiquitin ligase) | DRSC20148 | 1.58e6 | 1.60e6 | 9.99e5 | 1.14e6 | inactive |
| Uxt (Uxt prefoldin-like subunit) | DRSC01962 | 1.55e6 | 1.63e6 | 1.23e6 | 1.30e6 | inactive |
| Daao2 (D-amino acid oxidase 2) | DRSC02135 | 1.21e6 | 1.32e6 | 5.60e5 | 7.86e5 | inactive |
| pigeon | DRSC03565 | 1.27e6 | 1.34e6 | 1.32e6 | 1.34e6 | inactive |
| CG15423 | DRSC00437 | 1.62e6 | 1.52e6 | 1.18e6 | 1.35e6 | inactive |
| Nep7 (Neprilysin 7) | DRSC15830 | 1.53e6 | 1.62e6 | 1.02e6 | 1.14e6 | inactive |
| OS9 (Olfactory-specific 9) | DRSC02700 | 1.57e6 | 1.65e6 | 1.30e6 | 2.95e5 | inactive |
| dpa (disc proliferation abnormal) | DRSC07604 | 1.64e6 | 1.66e6 | 1.36e6 | 1.56e6 | inactive |
| Dbp45A (DEAD box protein 45A) | DRSC07395 | 1.37e6 | 1.44e6 | 1.14e6 | 1.24e6 | inactive |
| Shawn + Tyler | DRSC19564 | 1.55e6 | 1.63e6 | 1.02e6 | 1.22e6 | inactive |
| Shawn + Tyler | DRSC19565 | 1.55e6 | 1.55e6 | 1.15e6 | 1.32e6 | inactive |
| CG12091 | DRSC08251 | 1.53e6 | 1.35e6 | 1.00e6 | 1.25e6 | inactive |
| CG13313 | DRSC09984 | 1.74e6 | 1.56e6 | 1.35e6 | 1.31e6 | inactive |
| Mal-A5 (Maltase A5) | DRSC07232 | 1.40e6 | 1.44e6 | 1.19e6 | 1.24e6 | inactive |
| Ubc4 (Ubiquitin conjugating enzyme 4) | DRSC11312 | 1.48e6 | 1.46e6 | 1.44e6 | 1.35e6 | inactive |
| Rh4 + sina | DRSC11396 | 1.51e6 | 1.58e6 | 1.25e6 | 1.26e6 | inactive |
| Rrp47 (Ribosomal RNA processing 47) | DRSC20124 | 1.51e6 | 1.55e6 | 1.13e6 | 1.24e6 | inactive |
| ena (enabled) | DRSC05779 | 4.48e5 | – | 7.63e5 | – | inactive |
| ena (enabled) | DRSC07610 | 1.20e6 | 1.32e6 | 9.86e5 | 9.65e5 | inactive |
